This is one part of the list.

The chains behind the UniProt entries cited, without tags or fusion partners.
UniProt Q0JBA9, entry or part of it: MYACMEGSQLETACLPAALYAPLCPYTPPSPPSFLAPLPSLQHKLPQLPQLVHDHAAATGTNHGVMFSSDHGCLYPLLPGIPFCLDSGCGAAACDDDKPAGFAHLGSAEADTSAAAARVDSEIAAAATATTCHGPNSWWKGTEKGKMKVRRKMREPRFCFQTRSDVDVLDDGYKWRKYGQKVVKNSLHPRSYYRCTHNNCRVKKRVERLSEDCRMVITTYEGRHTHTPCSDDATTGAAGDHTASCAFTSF

The target of this experiment is OsWRKY34 (Oryza sativa, UniProt Q0JBA9 1-250). Kind of experiment: protein-binding microarray (RPBM); PBS, 2% BSA, 51.3 ng/ul salmon testes DNA, 50 uM zinc acetate, 200 nM TF, 25 C, 1 h; high values mean tight binding. Conditions: protein: recombinant; tags: N-terminal polyhistidine and DsRed monomer fusion (pET32a); label: CyDye5-dUTP incorporated in the synthesized complementary strand; 3' TTTTT single-stranded linker to array surface; dsDNA, one strand shown. In outline:
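The binding signal is fluorescence intensity per array feature (arbitrary units). Readings came from an Axon 4000B scanner after a washed, 2% BSA-blocked, double-stranded custom Agilent array had been incubated for 1 h at 25 °C with 200 nM protein and 50 µM zinc acetate. The protein was a Ni–NTA-purified transcription factor fused N-terminally to polyhistidine and DsRed, expressed in E. coli BL21-CodonPlus.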
“CCGGCGTCACCAGCCCACCACCGGTCTCCACCGCCACCCTCGGAGTCACCTAGTGCAG”: the binding signal was 11400 fluorescence intensity (a.u.).

Consider “TCCTTTTCCGCCATCTTTTTATCCCAAGAGCATATTTTCCCGGAGTCACCTAGTGCAG”, for which the binding signal was 8270 fluorescence intensity (a.u.).

With “ACAAGTTCCCTTGTTCCCTTTGTAACCTGTATTTTCTACCCGGAGTCACCTAGTGCAG”, the binding signal was 10100 fluorescence intensity (a.u.).

For the sequence “ACGACAAGAACCACCTCTCTCTCTCTCTCTCACTGTCCACCGGAGTCACCTAGTGCAG”, the binding signal is 9040 fluorescence intensity (a.u.).

With “TCTTTTTATAGTCAAATTTACTATTTTTGTTTCTATTTGTCGGAGTCACCTAGTGCAG”, the binding signal is 13400 fluorescence intensity (a.u.).

For “TGGTTTAAATTTAGGTTTGGTGTGTGATCTGTACTACCCACGGAGTCACCTAGTGCAG”, the binding signal is 8190 fluorescence intensity (a.u.).

Regarding “TTTGACGTTTTTTCTCGCTGCTATTATCTCCAGGGTGGGGCGGAGTCACCTAGTGCAG”, the binding signal is 17200 fluorescence intensity (a.u.).

For the sequence “AATTGCCACCAGTCTCCATGACAACTGACATTATATATTGCGGAGTCACCTAGTGCAG”, the binding signal was 8230 fluorescence intensity (a.u.).

Turning to “GCCTTGTGCCGTGCTCTAAAGATTCTTGGACACCTCTTATCGGAGTCACCTAGTGCAG”, the binding signal is 8370 fluorescence intensity (a.u.).

“ATCTATCCATATAATTAATTATATCATCCATTAGTTTTCACGGAGTCACCTAGTGCAG”: the binding signal was 10600 fluorescence intensity (a.u.).

In the case of “TGCTATTGCTCTGCCCGCATCCCTCCCTCGTCTCGTCTCGCGGAGTCACCTAGTGCAG”, the binding signal was 9050 fluorescence intensity (a.u.).

Turning to “GTTTCAAATATTTTCCCCTTCTAACTGTATTTGATCTGATCGGAGTCACCTAGTGCAG”, the binding signal was 8870 fluorescence intensity (a.u.).

As for “GTTTGCCTCCTACTCTGTACTGCGCCGTCGCTCGTAGACTCGGAGTCACCTAGTGCAG”, the binding signal was 8410 fluorescence intensity (a.u.).

For the sequence “GATATATATTTATAGAGGATTAAGGTAGTGGTGGAGCGCACGGAGTCACCTAGTGCAG”, the binding signal was 9980 fluorescence intensity (a.u.).

Turning to “GCGTGAGGGAATCGCGTTCCATCTAGTTTTCCTATAGTCGCGGAGTCACCTAGTGCAG”, the binding signal was 9220 fluorescence intensity (a.u.).

With “AAAGAAAGACTCAACTGCCGAGTCTCCGGTCCCACATCCACGGAGTCACCTAGTGCAG”, the binding signal was 9080 fluorescence intensity (a.u.).

Consider “GGTAAGCATATGTCTCCTTGGATTCTAATCTCATGGTTGACGGAGTCACCTAGTGCAG”, for which the binding signal is 10500 fluorescence intensity (a.u.).

Turning to “TCTTGTCCTCTACCGCCGCGACGGACCACGACCACTCCCTCGGAGTCACCTAGTGCAG”, the binding signal is 8180 fluorescence intensity (a.u.).

In the case of “TTCTTCAGTTCTTCTTCTTCTAATCATGCATGTTCCCGATCGGAGTCACCTAGTGCAG”, the binding signal was 9700 fluorescence intensity (a.u.).

For the sequence “ATGCTGATATCTTGCAATTTGCACACACTTCTCACCTGCTCGGAGTCACCTAGTGCAG”, the binding signal was 9620 fluorescence intensity (a.u.).

“TGGCTTGTATGTTGTTCCGTAGATTGTGGTGGGTGTTGATCGGAGTCACCTAGTGCAG”: the binding signal was 12600 fluorescence intensity (a.u.).

As to “AGCAAAGGGCTGCTTCTACTTCTTATCCATCTCACACATCCGGAGTCACCTAGTGCAG”, the binding signal was 8870 fluorescence intensity (a.u.).

In the case of “AATCCACGAGCACCAGCGATCGCCGTCATCCTCCGCCATGCGGAGTCACCTAGTGCAG”, the binding signal is 8410 fluorescence intensity (a.u.).

For “CTTTTAGCTCACCCGCTGTATCTTGCATGCTGTGTTGCCACGGAGTCACCTAGTGCAG”, the binding signal was 9250 fluorescence intensity (a.u.).

Regarding “TGGGTGGCTTTTGCTATTTTCTTGCTATGTACTAGTTCCACGGAGTCACCTAGTGCAG”, the binding signal was 10000 fluorescence intensity (a.u.).

On to “TCTCCGTTCCATACTCTTCTCTCCATGCCGAACATTTCTTCGGAGTCACCTAGTGCAG”, for which the binding signal is 9970 fluorescence intensity (a.u.).

For “GCTCTTCTCTCTCTCTCTATCTCTAGCATTCTCTCTCTGACGGAGTCACCTAGTGCAG”, the binding signal is 13900 fluorescence intensity (a.u.).

Take “TGAATATAGTTCCAGTAATTAATTACATTGCATATATCTCCGGAGTCACCTAGTGCAG”: the binding signal was 8090 fluorescence intensity (a.u.).

In the case of “GTCGTCGTCGTTGTTCGCTTCTGCCCGACTACCGCGTGCTCGGAGTCACCTAGTGCAG”, the binding signal was 10900 fluorescence intensity (a.u.).

Regarding “CACTGTCATTTCTTCCTTGCTTGCTTGTATAAACCTTGAACGGAGTCACCTAGTGCAG”, the binding signal is 13500 fluorescence intensity (a.u.).

Consider “AACAACTTAATTTCCCTTTTTCCAGTTGATAACGTGCAATCGGAGTCACCTAGTGCAG”, for which the binding signal is 8040 fluorescence intensity (a.u.).

For “CCCTATCAACTTCCCACCCACATCCACCGAAGGCACAGCACGGAGTCACCTAGTGCAG”, the binding signal is 8040 fluorescence intensity (a.u.).

Regarding “ACAACCGCATCCGATTCCATGGCCCAACCGCGCGCGCGCACGGAGTCACCTAGTGCAG”, the binding signal was 9170 fluorescence intensity (a.u.).

On to “ATTGTTCTCACAGCTCATTACACATAGCCCGCTCGGTCATCGGAGTCACCTAGTGCAG”, for which the binding signal is 9130 fluorescence intensity (a.u.).

As for “TATCCACATACCACCTCTCCATTGGACCACAGTTTCTCTCCGGAGTCACCTAGTGCAG”, the binding signal was 8340 fluorescence intensity (a.u.).

Regarding “TCAGTGTTGAGTAGGGTTGGCAGGCGAGCACGCAGTAATGCGGAGTCACCTAGTGCAG”, the binding signal was 8190 fluorescence intensity (a.u.).

Take “GCCTTTTTCTTGCGTGTAGGTTGTTCTGTTGAGAGAAAGACGGAGTCACCTAGTGCAG”: the binding signal is 17700 fluorescence intensity (a.u.).

For the sequence “CATATATAAATCGTACGTACTCAGGGTGTTGGGCAGATCACGGAGTCACCTAGTGCAG”, the binding signal was 8192 fluorescence intensity (a.u.).

Consider “AGGTTGGTAACTCGTAGCTGGGCATTGTCACTTCTTGTTCCGGAGTCACCTAGTGCAG”, for which the binding signal was 11700 fluorescence intensity (a.u.).

Regarding “GATGCGGGTCGGGGAGATCGGGGATTTGAGGGCAGCGGGACGGAGTCACCTAGTGCAG”, the binding signal was 9890 fluorescence intensity (a.u.).

For the sequence “GCTTTTCAGCTTTCTAGGACAGCATCTCTACTTTCAGTTTCGGAGTCACCTAGTGCAG”, the binding signal was 8610 fluorescence intensity (a.u.).

Consider “CTGGTTTTTAAGTTCGCTTTTTAGATTTTGTTACTATATACGGAGTCACCTAGTGCAG”, for which the binding signal is 9930 fluorescence intensity (a.u.).

The values above are taken from PMC7819943, “Rice protein-binding microarrays: a tool to detect cis-acting elements near promoter regions in rice”.
